Test results from patent publication US20260193623.

How the values were obtained:
Test in all cases: activity assay
MG156-2 = tested on: T1, MG156-2; conditions: primer extension on general RNA; protein translated in vitro; protein details: N-terminal Strep; label: 5'-FAM primer; DNA:RNA hybrid
T1 sequence: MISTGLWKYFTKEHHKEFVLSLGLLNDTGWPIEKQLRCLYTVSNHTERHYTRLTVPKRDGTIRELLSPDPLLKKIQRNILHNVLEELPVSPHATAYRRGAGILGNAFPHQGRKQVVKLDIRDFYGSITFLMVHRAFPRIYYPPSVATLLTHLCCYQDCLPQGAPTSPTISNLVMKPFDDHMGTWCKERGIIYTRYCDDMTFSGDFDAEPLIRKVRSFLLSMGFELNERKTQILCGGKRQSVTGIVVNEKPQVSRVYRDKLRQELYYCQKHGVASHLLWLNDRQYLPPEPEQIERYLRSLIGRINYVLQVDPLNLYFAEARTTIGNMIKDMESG

MG151-90 = tested on: T2, MG151-90; conditions: primer extension gel; protein translated in vitro; protein details: Strep, RT-RNase H trim; label: 5'-FAM primer; DNA:RNA hybrid
T2 sequence (limits assumed): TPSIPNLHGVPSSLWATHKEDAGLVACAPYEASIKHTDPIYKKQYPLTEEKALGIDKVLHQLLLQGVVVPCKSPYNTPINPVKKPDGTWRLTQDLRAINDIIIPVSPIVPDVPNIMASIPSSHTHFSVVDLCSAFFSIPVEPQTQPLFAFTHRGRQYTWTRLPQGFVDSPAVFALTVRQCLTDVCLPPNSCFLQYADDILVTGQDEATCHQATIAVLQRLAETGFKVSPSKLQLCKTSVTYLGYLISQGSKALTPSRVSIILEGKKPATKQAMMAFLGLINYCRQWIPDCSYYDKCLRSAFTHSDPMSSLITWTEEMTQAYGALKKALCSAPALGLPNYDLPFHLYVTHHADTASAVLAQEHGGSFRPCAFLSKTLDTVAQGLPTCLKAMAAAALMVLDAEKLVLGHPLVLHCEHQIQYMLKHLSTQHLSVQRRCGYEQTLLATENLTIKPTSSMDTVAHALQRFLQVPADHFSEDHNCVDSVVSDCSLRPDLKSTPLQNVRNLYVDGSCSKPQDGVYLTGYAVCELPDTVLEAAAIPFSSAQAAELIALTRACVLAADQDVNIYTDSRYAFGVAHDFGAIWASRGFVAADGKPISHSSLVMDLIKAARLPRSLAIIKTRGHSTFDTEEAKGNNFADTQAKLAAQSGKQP

MG151-88 = tested on: T3, MG151-88; conditions: primer extension gel; protein translated in vitro; protein details: Strep, RT-RNase H trim; label: 5'-FAM primer; DNA:RNA hybrid
T3 sequence (limits assumed): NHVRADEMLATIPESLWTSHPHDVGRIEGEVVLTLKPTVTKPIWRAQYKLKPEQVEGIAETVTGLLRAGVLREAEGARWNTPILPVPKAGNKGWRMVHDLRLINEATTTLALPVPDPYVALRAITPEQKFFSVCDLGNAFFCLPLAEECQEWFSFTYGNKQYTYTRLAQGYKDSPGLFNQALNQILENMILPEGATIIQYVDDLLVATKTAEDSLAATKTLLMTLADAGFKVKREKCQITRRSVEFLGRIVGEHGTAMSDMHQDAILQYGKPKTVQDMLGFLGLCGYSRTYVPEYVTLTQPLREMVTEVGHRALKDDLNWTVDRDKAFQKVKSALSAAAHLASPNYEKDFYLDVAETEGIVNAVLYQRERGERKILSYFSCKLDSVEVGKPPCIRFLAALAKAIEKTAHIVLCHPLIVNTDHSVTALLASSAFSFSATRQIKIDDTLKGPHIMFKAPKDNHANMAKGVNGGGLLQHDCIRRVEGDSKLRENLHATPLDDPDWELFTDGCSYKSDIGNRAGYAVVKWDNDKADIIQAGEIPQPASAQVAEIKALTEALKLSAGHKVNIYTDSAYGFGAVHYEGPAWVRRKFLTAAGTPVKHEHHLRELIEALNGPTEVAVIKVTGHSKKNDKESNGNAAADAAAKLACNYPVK

MG173-3 = tested on: T4, MG173-3; conditions: primer extension on general RNA; protein translated in vitro; protein details: N-terminal Strep; label: 5'-FAM primer; DNA:RNA hybrid
T4 sequence (limits assumed): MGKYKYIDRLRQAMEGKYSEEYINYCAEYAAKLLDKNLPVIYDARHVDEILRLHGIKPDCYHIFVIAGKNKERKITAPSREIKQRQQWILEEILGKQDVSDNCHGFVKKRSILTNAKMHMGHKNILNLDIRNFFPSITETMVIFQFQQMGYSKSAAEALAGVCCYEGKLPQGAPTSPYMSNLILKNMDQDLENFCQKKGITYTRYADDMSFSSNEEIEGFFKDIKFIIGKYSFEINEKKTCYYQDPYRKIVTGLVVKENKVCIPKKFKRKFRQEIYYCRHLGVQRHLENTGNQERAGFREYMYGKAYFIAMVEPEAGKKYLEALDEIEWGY

MG167-1 = tested on: T5, MG167-1; conditions: primer extension gel; protein translated in vitro; protein details: N-terminal Strep; label: 5'-FAM primer; DNA:RNA hybrid
T5 sequence (limits assumed): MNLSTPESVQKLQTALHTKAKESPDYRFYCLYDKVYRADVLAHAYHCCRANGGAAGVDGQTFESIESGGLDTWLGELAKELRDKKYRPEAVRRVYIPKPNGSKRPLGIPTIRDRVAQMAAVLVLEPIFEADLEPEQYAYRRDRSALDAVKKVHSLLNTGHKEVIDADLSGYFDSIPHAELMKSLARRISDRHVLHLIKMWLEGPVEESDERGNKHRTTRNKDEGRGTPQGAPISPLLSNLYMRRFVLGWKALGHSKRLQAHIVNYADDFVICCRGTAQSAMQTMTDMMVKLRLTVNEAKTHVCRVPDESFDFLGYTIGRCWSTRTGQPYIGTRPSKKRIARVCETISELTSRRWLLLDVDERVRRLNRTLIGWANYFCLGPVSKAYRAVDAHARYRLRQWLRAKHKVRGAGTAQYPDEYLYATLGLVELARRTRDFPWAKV

MG153-42 = tested on: T6, MG153-42; conditions: primer extension gel; 3 mM MgCl2, 37 C; protein translated in vitro; protein details: N-terminal Strep; label: 5'-FAM primer; DNA:RNA hybrid
T6 sequence (limits assumed): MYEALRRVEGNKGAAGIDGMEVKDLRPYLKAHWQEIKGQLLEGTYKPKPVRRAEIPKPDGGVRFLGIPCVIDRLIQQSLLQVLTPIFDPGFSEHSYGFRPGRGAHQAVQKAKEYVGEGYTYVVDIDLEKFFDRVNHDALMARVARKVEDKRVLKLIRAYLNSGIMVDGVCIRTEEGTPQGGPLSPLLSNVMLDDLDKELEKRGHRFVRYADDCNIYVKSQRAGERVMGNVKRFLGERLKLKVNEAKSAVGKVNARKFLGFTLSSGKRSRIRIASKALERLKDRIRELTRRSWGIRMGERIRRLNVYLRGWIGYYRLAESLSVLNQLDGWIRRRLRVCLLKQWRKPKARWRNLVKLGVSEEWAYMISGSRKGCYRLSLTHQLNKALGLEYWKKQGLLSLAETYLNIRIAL

Measured: activity on this sequence

GGCAAACCGCCTCTCCCCGCGCGTTGGCCGATTCATTAATGCAGCTGGCACGACAGGTTTCCCGACTGGAAAGGAGACCCGGGCAGTGAGCGCAACGGGTCTCCAATTTAAGCCAGCCCCGACACCCGCCAACACCCGCTGACGCGCCCTGACGGGCTTGTCTGCTCCCGGCATCCGCTTACAGACAAGCTGTGACCGTCTC / GAGACGGTCACAGCTTGTCTG [202-nt RNA template annealed to DNA primer]
active: all assays above

Construct, isoform or probe ends are uncertain for at least one entry. Where a protein sequence is shown, tags need not be part of it.
